According to article PMC9367404:
No constants are given. Whether binding was seen depends on the method and setting. Binding seen in cells or lysates may run through a third protein. Some binding calls cover weakened binding; strength is not graded here.

Chains of the proteins cited; added tags and fusions are not shown. Lines headed by an entry give the natural chain unless they say otherwise; changes in a name come on top.
UniProt Q15746: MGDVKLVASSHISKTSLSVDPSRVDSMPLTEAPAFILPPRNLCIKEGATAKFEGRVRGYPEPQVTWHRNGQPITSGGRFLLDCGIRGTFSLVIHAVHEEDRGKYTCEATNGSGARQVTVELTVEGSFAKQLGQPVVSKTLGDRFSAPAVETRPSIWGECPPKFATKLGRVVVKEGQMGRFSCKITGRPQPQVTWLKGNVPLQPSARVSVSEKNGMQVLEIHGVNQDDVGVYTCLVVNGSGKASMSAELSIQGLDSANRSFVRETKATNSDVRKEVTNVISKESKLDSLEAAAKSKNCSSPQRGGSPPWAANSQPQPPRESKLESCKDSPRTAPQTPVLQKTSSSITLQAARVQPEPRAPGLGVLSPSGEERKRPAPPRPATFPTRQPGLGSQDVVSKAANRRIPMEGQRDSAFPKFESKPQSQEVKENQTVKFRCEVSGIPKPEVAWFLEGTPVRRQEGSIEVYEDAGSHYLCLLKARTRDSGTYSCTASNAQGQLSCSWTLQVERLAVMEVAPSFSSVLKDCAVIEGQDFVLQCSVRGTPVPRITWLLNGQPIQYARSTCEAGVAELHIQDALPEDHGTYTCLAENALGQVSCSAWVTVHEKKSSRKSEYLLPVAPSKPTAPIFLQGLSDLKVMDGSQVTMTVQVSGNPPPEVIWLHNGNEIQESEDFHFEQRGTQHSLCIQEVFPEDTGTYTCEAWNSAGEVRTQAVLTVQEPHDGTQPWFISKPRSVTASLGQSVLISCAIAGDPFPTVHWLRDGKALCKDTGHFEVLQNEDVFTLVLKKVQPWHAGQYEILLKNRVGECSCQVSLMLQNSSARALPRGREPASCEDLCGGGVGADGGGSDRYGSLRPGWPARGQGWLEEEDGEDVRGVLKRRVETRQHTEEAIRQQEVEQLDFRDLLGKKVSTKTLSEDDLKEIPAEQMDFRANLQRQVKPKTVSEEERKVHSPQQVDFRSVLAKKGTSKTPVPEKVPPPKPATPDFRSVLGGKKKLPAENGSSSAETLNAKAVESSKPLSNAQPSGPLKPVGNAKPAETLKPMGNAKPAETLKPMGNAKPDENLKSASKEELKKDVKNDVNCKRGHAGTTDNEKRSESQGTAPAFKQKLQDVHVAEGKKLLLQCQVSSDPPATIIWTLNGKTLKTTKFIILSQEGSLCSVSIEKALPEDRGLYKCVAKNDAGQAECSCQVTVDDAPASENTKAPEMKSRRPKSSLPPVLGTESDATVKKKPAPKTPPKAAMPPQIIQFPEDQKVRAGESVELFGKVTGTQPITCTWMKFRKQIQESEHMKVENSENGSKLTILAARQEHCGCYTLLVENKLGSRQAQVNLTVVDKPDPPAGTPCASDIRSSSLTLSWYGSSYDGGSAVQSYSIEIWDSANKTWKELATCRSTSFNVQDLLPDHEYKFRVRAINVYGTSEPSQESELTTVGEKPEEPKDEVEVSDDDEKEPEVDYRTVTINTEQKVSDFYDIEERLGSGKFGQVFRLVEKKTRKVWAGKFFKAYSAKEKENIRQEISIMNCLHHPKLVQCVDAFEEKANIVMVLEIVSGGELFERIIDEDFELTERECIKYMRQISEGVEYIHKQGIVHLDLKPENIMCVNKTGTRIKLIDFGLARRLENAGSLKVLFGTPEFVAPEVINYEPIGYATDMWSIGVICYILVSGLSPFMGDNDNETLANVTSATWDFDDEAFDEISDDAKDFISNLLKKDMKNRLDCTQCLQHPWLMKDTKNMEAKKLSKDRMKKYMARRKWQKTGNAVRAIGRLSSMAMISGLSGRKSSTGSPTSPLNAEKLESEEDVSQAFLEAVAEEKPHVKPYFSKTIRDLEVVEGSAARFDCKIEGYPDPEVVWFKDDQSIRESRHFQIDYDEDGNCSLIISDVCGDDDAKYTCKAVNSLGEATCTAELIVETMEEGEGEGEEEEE
UniProt P05556: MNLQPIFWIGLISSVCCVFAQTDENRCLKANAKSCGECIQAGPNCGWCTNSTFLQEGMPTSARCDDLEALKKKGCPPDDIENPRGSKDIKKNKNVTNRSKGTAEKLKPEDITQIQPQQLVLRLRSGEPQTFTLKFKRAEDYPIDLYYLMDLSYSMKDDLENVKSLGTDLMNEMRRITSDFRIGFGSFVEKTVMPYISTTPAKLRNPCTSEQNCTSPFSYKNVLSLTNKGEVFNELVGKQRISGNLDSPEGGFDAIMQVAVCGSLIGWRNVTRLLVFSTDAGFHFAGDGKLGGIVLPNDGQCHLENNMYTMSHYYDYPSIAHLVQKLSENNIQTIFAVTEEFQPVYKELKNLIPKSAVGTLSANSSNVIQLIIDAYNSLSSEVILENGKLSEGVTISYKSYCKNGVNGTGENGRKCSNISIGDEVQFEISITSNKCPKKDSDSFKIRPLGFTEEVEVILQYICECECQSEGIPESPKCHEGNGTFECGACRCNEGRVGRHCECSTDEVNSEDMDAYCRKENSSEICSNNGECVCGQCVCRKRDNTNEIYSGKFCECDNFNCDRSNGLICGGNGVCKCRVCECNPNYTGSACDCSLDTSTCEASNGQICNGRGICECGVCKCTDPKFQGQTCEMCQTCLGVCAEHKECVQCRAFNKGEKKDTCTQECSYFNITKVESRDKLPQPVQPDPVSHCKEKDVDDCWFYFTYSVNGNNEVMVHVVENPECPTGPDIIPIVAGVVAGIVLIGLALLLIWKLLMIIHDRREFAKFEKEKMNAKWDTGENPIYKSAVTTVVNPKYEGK

Target: myosin light chain kinase (human (endogenous in HASM cells)) (UniProt Q15746)
Experiment: co-IP; MLCK immunoprecipitated from precleared HASM cell extracts (antibody overnight, protein A/G PLUS agarose 3 h); washed four times in 50 mM Tris-HCl pH 7.6, 150 mM NaCl, 0.1% Triton X-100; immunoblot for integrin β1

binding: binds
Substance: integrin β1 (from UniProt P05556 21-798) (receptor)
